{"source": "patent US4774320A", "about": "“Synthetic peptide with human interleukin 1 activity” (Sclavo S.p.A., priority 1986, dated 1988)", "assay_type_in_all_cases": "cell-based", "key": {"[1]": {"system": "thymocytes obtained from inbred C3H/HeJ mice", "experiment": "Costimulation (proliferation) of PHA-activated thymocytes, test of Gery et al.", "conditions": "72 hours, submitogenic PHA, peptide 50-800 μg/ml, FIG. 2"}, "[2]": {"system": "T cells from the spleen of C3H/HeJ mice", "experiment": "Induction of IL-2 production in ConA-activated spleen T cells; supernatants tested for growth of IL-2-dependent CTLL-2 cells", "conditions": "for IL-2 (mU/ml) / Stimulation index + SE of CTLL cells: supernatants of splenocytes incubated 48 hours with ConA and substance", "protocol": "For the purpose of establishing whether the activity of costimulation of the murine thymocytes on the part of the synthetic peptide is due, as in the case of human IL-1, to the induction of the production of IL-2, the following test was carried out.\nT cells from the spleen of C3H/HeJ mice, separated on nylon wool as reported by Julius, M. H. et al., Eur. J. Immunol. 3, 645 (1973), are incubated in duplicate for 48 hours at 37° C. in 1 ml of RPMI 1640 medium (GIBCO), supplemented by N-2-hydroxyethylpiperazine N'-2-ethanesulphonic acid (HEPES), L-glutamine, gentamycin, 10% bovine foetal serum and 2-mercaptoethanol (2.5×10^-5 M), in the presence of graduated concentrations (840-420-210 μg/ml) of the synthetic peptide 163-171 and of purified human IL-1B as standard, with the addition of concanavalin A (ConA) as costimulant.\nAt the end of the period of incubation, the supernatant is separated from the culture and a determination is made of its capacity to promote the growth of CTLL-2 cells dependent upon IL-2 according to the method reported by Gillis S. M. et al. (J. Immunol. 120, 2027 (1978)).\nThe mitogenic activity of IL-2 on CTLL-2 cells is measured, either by determining the number of cells after 24 hours of culturing or by means of the assessment of the incorporation of tritiated thymidine in the cells.\nMurine splenocytes were incubated for 48 hours in 5% CO2 at 37° C. with the substances under investigation, and the supernatants collected for the purpose of incubation were tested for the capacity to induce proliferations of CTLL cells dependent on IL-2."}, "CTLL-2 cells": {"system": "CTLL-2 cells", "experiment": "Substances tested directly on IL-2-dependent CTLL cells (no splenocyte supernatant; upper part of Table 2)"}}, "note": "Part of at least one peptide drawing is inferred or uncertain, most often the ends. Where a SMILES comes first, the peptide text is derived from it."}
{"smiles": "CC(C)[C@H](N)C(=O)N[C@@H](CCC(N)=O)C(=O)NCC(=O)N[C@@H](CCC(=O)O)C(=O)N[C@@H](CCC(=O)O)C(=O)N[C@@H](CO)C(=O)N[C@@H](CC(N)=O)C(=O)N[C@@H](CC(=O)O)C(=O)N[C@@H](CCCCN)C(=O)O", "note": "[Peptide 163-171, Val-Gln-Gly-Glu-Glu-Ser-Asn-Asp-Lys-OH] (H-VQGEESNDK-OH)", "values": [{"measurement": "proliferation of thymocytes (tritiated thymidine incorporation), costimulation with PHA", "setting": "[1]", "value": "significant activity of costimulation of the murine thymocytes"}, {"measurement": "stimulating the production of IL-2 by T cells of the spleen activated by ConA, compared with purified human IL-1B", "setting": "[2]; ConA costimulant, 48 hours", "value": "to a greater extent than that of purified human IL-1B"}, {"measurement": "reproduction of human IL-1 activity (production of IL-2, proliferation of immunocompetent cells), conclusion", "setting": "[2]; conclusion from Table 2 results", "value": "capable of reproducing the activity of the entire molecule of human IL-1"}, {"measurement": "IL-2 (mU/ml)", "setting": "[2]; 420 μg/ml", "value": 444, "unit": "mU/ml"}, {"measurement": "Stimulation index + SE of CTLL cells", "setting": "[2]; 420 μg/ml", "value": "72.07 ± 3.43"}, {"measurement": "IL-2 (mU/ml)", "setting": "[2]; 630 μg/ml", "value": 586, "unit": "mU/ml"}, {"measurement": "Stimulation index + SE of CTLL cells", "setting": "[2]; 630 μg/ml", "value": "122.80 ± 11.43"}, {"measurement": "IL-2 (mU/ml)", "setting": "[2]; 840 μg/ml", "value": 721, "unit": "mU/ml"}, {"measurement": "Stimulation index + SE of CTLL cells", "setting": "[2]; 840 μg/ml", "value": "149.40 ± 4.65"}, {"measurement": "IL-2 (mU/ml)", "setting": "CTLL-2 cells; 210 μg/ml", "value": 1, "unit": "mU/ml"}, {"measurement": "Stimulation index + SE of CTLL cells", "setting": "CTLL-2 cells; 210 μg/ml", "value": "1.18 ± 0.23"}, {"measurement": "IL-2 (mU/ml)", "setting": "CTLL-2 cells; 420 μg/ml", "value": 1, "unit": "mU/ml"}, {"measurement": "Stimulation index + SE of CTLL cells", "setting": "CTLL-2 cells; 420 μg/ml", "value": "1.03 ± 0.48"}, {"measurement": "IL-2 (mU/ml)", "setting": "CTLL-2 cells; 840 μg/ml", "value": 1, "unit": "mU/ml"}, {"measurement": "Stimulation index + SE of CTLL cells", "setting": "CTLL-2 cells; 840 μg/ml", "value": "0.96 ± 0.11"}]}
